Patent publication US20130129719

Sequences of proteins named here, by UniProt entry; tags and fusion partners are left off. Residues count along the entry.
UniProt P06494, 23-1257: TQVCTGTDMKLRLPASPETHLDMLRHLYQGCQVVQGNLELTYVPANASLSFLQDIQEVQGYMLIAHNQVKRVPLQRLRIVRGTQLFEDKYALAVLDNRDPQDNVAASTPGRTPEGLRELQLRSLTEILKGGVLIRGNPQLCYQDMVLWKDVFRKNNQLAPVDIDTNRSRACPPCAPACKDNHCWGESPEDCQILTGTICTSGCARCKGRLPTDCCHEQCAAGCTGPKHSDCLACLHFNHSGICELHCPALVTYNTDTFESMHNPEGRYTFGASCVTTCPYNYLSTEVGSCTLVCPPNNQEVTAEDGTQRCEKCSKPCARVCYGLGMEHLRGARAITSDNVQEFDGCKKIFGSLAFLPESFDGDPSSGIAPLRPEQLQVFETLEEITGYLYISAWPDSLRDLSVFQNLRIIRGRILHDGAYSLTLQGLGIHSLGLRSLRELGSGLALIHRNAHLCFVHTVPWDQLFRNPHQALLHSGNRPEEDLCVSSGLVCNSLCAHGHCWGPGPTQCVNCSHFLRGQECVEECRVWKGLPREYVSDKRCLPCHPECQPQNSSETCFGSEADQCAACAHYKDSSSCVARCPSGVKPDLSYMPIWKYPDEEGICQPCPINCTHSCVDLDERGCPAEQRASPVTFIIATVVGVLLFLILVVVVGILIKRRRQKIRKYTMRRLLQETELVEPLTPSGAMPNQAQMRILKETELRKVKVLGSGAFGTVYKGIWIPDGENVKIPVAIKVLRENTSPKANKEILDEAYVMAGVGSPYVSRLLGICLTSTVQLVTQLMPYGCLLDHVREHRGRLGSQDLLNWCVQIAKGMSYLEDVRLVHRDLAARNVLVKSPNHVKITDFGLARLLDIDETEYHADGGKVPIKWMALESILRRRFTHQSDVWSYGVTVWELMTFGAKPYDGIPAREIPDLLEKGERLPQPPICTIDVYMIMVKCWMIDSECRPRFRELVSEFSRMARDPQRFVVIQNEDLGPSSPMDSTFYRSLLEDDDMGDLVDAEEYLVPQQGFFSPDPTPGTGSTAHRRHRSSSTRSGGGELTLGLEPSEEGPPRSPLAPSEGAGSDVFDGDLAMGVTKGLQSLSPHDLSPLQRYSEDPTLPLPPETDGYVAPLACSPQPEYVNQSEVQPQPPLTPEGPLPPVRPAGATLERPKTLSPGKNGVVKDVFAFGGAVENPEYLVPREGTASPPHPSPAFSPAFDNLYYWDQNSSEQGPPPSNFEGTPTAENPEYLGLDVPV

Target: HER2 (Rattus norvegicus) (UniProt P06494)
Assay: activity in cells
Conditions: preferential internalization into HER2+ vs HER2- cells by qRT-PCR, protein on the cell surface, dose not given here

GGGAGGACGAUGCGGAUGUAUGUUGGGAGCCACGCCAGACGACUCGCCCGAGCUGUCACAGAGGGGCUACUU / GUAGCCCCUCUGUGACAGCUU [D1-Bcl-2 chimera]
functional effect of the aptamer (variant of D1): active

GGGAGGACGAUGCGGCGAUGCUUACGUGCACGCGCCAGACGACUCGCCCGAGCUGUCACAGAGGGGCUACUU / GUAGCCCCUCUGUGACAGCUU [C3-Bcl-2 chimera]
functional effect of the aptamer: active

GGGAGGACGAUGCGGCUGUAUGUUGGUAGCCACGCCAGACGACUCGCCCGAGCUGUCACAGAGGGGCUACUU / GUAGCCCCUCUGUGACAGCUU [D2-Bcl-2 chimera]
functional effect of the aptamer: active

GGGAGGACGAUGCGGCUGUCUACCUUCUACUGCCGCAGACGACUCGCCCGAGCUGUCACAGAGGGGCUACUU / GUAGCCCCUCUGUGACAGCUU [C1-Bcl-2 chimera]
functional effect of the aptamer (variant of C1): active

GGGAGGACGAUGCGGGACUGUACGGGCUCUGUGCAGACGACUCGCCCGAGCUGUCACAGAGGGGCUACUU / GUAGCCCCUCUGUGACAGCUU [A3-Bcl-2 chimera]
functional effect of the aptamer: active

GGGAGGACGAUGCGGGACUGUAUGGGGCUCUGUGCAGACGACUCGCCCGAGCUGUCACAGAGGGGCUACUU / GUAGCCCCUCUGUGACAGCUU [A2-Bcl-2 chimera]
functional effect of the aptamer (variant of A2): active

GGGAGGACGAUGCGGUCUGCUGUGCUUGAUAUGCCCCAGACGACUCGCCCGAGCUGUCACAGAGGGGCUACUU / GUAGCCCCUCUGUGACAGCUU [B3-Bcl-2 chimera]
functional effect of the aptamer: active

GGGAGGACGAUGCGGUCUGUGUGGGAUGUGGCCCCAGACGACUCGCCCGAGCUGUCACAGAGGGGCUACUU / GUAGCCCCUCUGUGACAGCUU [D3-Bcl-2 chimera]
functional effect of the aptamer: active

GGGAGGACGAUGCGGUCUGUUGUGCUUGAUAUGCCCCAGACGACUCGCCCGAGCUGUCACAGAGGGGCUACUU / GUAGCCCCUCUGUGACAGCUU [B1-Bcl-2 chimera]
functional effect of the aptamer (variant of B1): active
